For this data set, the system named is HLA-A*02 molecules of primary tumors. Put plainly: Identification and relative LC-MS quantitation of HLA-A*02 tumor-associated peptides presented on tissue samples (XPRESIDENT presentation profiles). Details: species or system human.
Where [1] appears, read: Table 8A: selected HLA-A*02-binding tumor-associated peptides, cancer entities on which the peptide was found presented.
Setting [2] is: Table 8B: selected HLA-A*02 peptides, presentation on additional cancer entities.
Where [3] appears, read: FIG. 1 presentation profile, shown are only samples where the peptide was found to be presented.

With “330 (FLWPKEVEL; listed as Homo sapiens) [compound 330]”, the “Peptide Presentation on cancer entities” value by setting is: under setting [1], “NSCLC, BRCA, SCLC, OC, CLL, NHL”; under setting [2], “AML”.

With “81 (VLFLGKLLV; listed as Homo sapiens) [compound 81]”, the “Peptide Presentation on cancer entities” value reads like this: under setting [1], “CRC, UBC”; under setting [2], “HNSCC”. Turning to “9 (FLGDYVENL; listed as Homo sapiens) [compound 9]”, the “Peptide Presentation on cancer entities” value is, setting by setting: under setting [1], “CLL, CRC, UBC”; under setting [2], “UTC, AML, OC, clPC”. As to “64 (GLSSSSYEL; listed as Homo sapiens) [compound 64]”, under setting [2], the “Peptide Presentation on cancer entities” value is listed as “GBC_CCC, HCC”. Consider “2 (ALYGKLLKL; listed as Homo sapiens) [compound 2]”, for which the “Peptide Presentation on cancer entities” value is “RCC, OSCAR, GB, BRCA, CLL, UBC, HCC, SCLC, NSCLC, CRC, OC, GC, NHL” under setting [1] and “clPC, UTC, PCA, MEL, AML” under setting [2]. Turning to “324 (AIFDFCPSV; listed as Homo sapiens) [compound 324]”, the “Peptide Presentation on cancer entities” value under setting [1] is “NSCLC, CRC, GC, MEL, GB, OSCAR, CLL” and the “Peptide Presentation on cancer entities” value under setting [2] is “BRCA, NHL, UTC, AML, HNSCC”. For “YVLPKLYVKL (listed as Homo sapiens) [SEQ ID NO: 35]”, under setting [3], the “number of cancer tissues on which the peptide was found presented” value is 8 and the “number of normal tissues on which the peptide was found presented” value was found to be 1. With “69 (GIYDGILHSI; listed as Homo sapiens) [compound 69]”, the “Peptide Presentation on cancer entities” value under setting [1] is listed as “UEC, GB”.

Regarding “86 (LLVTSLVVV; listed as Homo sapiens) [compound 86]”, under setting [2], the “Peptide Presentation on cancer entities” value is “HCC, GBC_CCC”. Consider “89 (YLVAHNLLL; listed as Homo sapiens) [compound 89]”, for which the “Peptide Presentation on cancer entities” value under setting [1] is listed as “RCC”. On to “83 (ELLEYLPQL; listed as Homo sapiens) [compound 83]”, for which the “Peptide Presentation on cancer entities” value under setting [1] is listed as “PC, GBC_CCC”.

Turning to “43 (LLWAGPVTA; listed as Homo sapiens) [compound 43]”, the “Peptide Presentation on cancer entities” value under setting [1] is on record as “CLL, HCC, CRC, NSCLC, RCC, UBC, NHL, TC” and the “Peptide Presentation on cancer entities” value under setting [2] was “HNSCC”. On to “327 (SIGDIFLKY; listed as Homo sapiens) [compound 327]”, for which the “Peptide Presentation on cancer entities” value runs as follows: under setting [1], “GC, GB, CRC, RCC, NSCLC”; under setting [2], “MEL, AML”. Consider “61 (HLPDFVKQL; listed as Homo sapiens) [compound 61]”, for which the “Peptide Presentation on cancer entities” value by setting is: under setting [1], “BRCA, CLL, GBC_CCC”; under setting [2], “MEL, AML”.

On to “SEQ ID No. 1 (PLWGKVFYL; listed as Homo sapiens)”, for which, where the note is “cancer entities named in the text as examples from Table 8”, the “presentation on various cancer entities” value is “urinary bladder cancer, esophageal cancer, including cancer of the gastric-esophageal junction, hepatocellular carcinoma, non-small cell lung cancer, and pancreatic cancer”. Take “3 (TLLGKQVTL; listed as Homo sapiens) [compound 3]”: the “Peptide Presentation on cancer entities” value under setting [2] is “CLL, NSCLC, NHL, AML”. With “333 (GTFLEGVAK; listed as Homo sapiens) [compound 333]”, the “Peptide Presentation on cancer entities” value by setting is: under setting [1], “RCC, CLL, HCC”; under setting [2], “MEL, NSCLC”. Consider “87 (YLTEVFLHVV; listed as Homo sapiens) [compound 87]”, for which, under setting [1], the “Peptide Presentation on cancer entities” value was “CLL, NHL”.

With “68 (ALYGFFFKI; listed as Homo sapiens) [compound 68]”, the “Peptide Presentation on cancer entities” value under setting [1] was “UBC”. “5 (SLFGQEVYC; listed as Homo sapiens) [compound 5]”: the “Peptide Presentation on cancer entities” value reads like this: under setting [1], “HCC, GB, CRC”; under setting [2], “GBC_CCC, PCA”. As for “19 (TLLPTVLTL; listed as Homo sapiens) [compound 19]”, the “Peptide Presentation on cancer entities” value by setting is: under setting [1], “RCC, UBC, SCLC”; under setting [2], “GBC_CCC, BRCA, UTC”. As for “74 (ILDETLENV; listed as Homo sapiens) [compound 74]”, the “Peptide Presentation on cancer entities” value was “UBC, SCLC, NHL” under setting [1] and “AML, BRCA” under setting [2]. Take “36 (KLYGIEIEV; listed as Homo sapiens) [compound 36]”: the “Peptide Presentation on cancer entities” value by setting is: under setting [1], “NSCLC, GB, RCC”; under setting [2], “UTC”. In the case of “56 (KILDLTRVL; listed as Homo sapiens) [compound 56]”, the “Peptide Presentation on cancer entities” value by setting is: under setting [1], “CRC, NSCLC”; under setting [2], “GBC_CCC”.

As to “22 (MLSDLTLQL; listed as Homo sapiens) [compound 22]”, the “Peptide Presentation on cancer entities” value is, setting by setting: under setting [1], “CRC, PCA, RCC, NSCLC, BRCA, GC, SCLC, PC, OSCAR”; under setting [2], “MEL”.

Regarding “85 (STLDGSLHAV; listed as Homo sapiens) [compound 85]”, the “Peptide Presentation on cancer entities” value under setting [1] is “OSCAR, PCA, GC”.

Turning to “325 (RLLPKVQEV; listed as Homo sapiens) [compound 325]”, the “Peptide Presentation on cancer entities” value under setting [1] is “OSCAR, NSCLC, CRC, SCLC, OC” and the “Peptide Presentation on cancer entities” value under setting [2] is on record as “AML, BRCA, UBC, GC”.

“67 (GVIETVTSL; listed as Homo sapiens) [compound 67]”: the “Peptide Presentation on cancer entities” value is “NSCLC, GC, CRC” under setting [1] and “AML” under setting [2]. As for “28 (TLYSMDLMKV; listed as Homo sapiens) [compound 28]”, the “Peptide Presentation on cancer entities” value under setting [2] was “HNSCC, RCC”. Turning to “1 (PLWGKVFYL; listed as Homo sapiens) [compound 1]”, the “Peptide Presentation on cancer entities” value is, setting by setting: under setting [1], “UBC, OSCAR, HCC, NSCLC, clPC”; under setting [2], “GBC_CCC”. For “80 (TLDEYLTYL; listed as Homo sapiens) [compound 80]”, the “Peptide Presentation on cancer entities” value under setting [2] is given as “HCC”. Turning to “72 (GMIGFQVLL; listed as Homo sapiens) [compound 72]”, the “Peptide Presentation on cancer entities” value under setting [1] was “UBC, OC, CLL, GB, GBC_CCC” and the “Peptide Presentation on cancer entities” value under setting [2] was “HNSCC, AML”. With “20 (ALDGHLYAI; listed as Homo sapiens) [compound 20]”, the “Peptide Presentation on cancer entities” value under setting [1] is on record as “RCC, UBC, GC”.

With “66 (FITDFYTTV; listed as Homo sapiens) [compound 66]”, the “Peptide Presentation on cancer entities” value under setting [2] was “MEL, UBC, HCC, HNSCC, CRC”. For “60 (FLIDTSASM; listed as Homo sapiens) [compound 60]”, the “Peptide Presentation on cancer entities” value under setting [1] is reported as “UBC, SCLC, RCC” and the “Peptide Presentation on cancer entities” value under setting [2] is given as “AML, CLL, BRCA, HNSCC, UTC, NHL”. Turning to “51 (LLLDGDFTL; listed as Homo sapiens) [compound 51]”, the “Peptide Presentation on cancer entities” value under setting [1] is “SCLC, HCC” and the “Peptide Presentation on cancer entities” value under setting [2] is “OSCAR”.

In the case of “326 (SLLPLVWKI; listed as Homo sapiens) [compound 326]”, the “Peptide Presentation on cancer entities” value runs as follows: under setting [1], “NSCLC, CRC, GB, RCC, MEL, CLL, TC”; under setting [2], “AML”. Turning to “41 (FVLPLVVTL; listed as Homo sapiens) [compound 41]”, the “Peptide Presentation on cancer entities” value reads like this: under setting [1], “OC, OSCAR, CLL, PCA, SCLC, NSCLC, NHL”; under setting [2], “AML, CRC, BRCA, HNSCC, UTC”. “334 (GRADALRVL; listed as Homo sapiens) [compound 334]”: the “Peptide Presentation on cancer entities” value reads like this: under setting [1], “BRCA, SCLC, CLL”; under setting [2], “MEL, GBC_CCC, AML”. Take “76 (ILLDESNFNHFL; listed as Homo sapiens) [compound 76]”: the “Peptide Presentation on cancer entities” value under setting [1] is “NSCLC”. Turning to “47 (GLYQAQVNL; listed as Homo sapiens) [compound 47]”, the “Peptide Presentation on cancer entities” value was “NSCLC, SCLC” under setting [1] and “OSCAR” under setting [2]. On to “35 (YVLPKLYVKL; listed as Homo sapiens) [compound 35]”, for which the “Peptide Presentation on cancer entities” value by setting is: under setting [1], “CLL, CRC, NSCLC, GBC_CCC, UBC, OSCAR”; under setting [2], “HNSCC, NHL, AML”.

“75 (ILDNVKNLL; listed as Homo sapiens) [compound 75]”: the “Peptide Presentation on cancer entities” value under setting [2] is on record as “AML”. On the same count and under the same terms, the same measure for “33 (LLLPLLPPLSPSLG; listed as Homo sapiens) [compound 33]”: “MEL, NSCLC, GBC_CCC, GC, clPC, SCLC, GB, PC, MCC, CRC, HCC”. Take “42 (VLSPFILTL; listed as Homo sapiens) [compound 42]”: the “Peptide Presentation on cancer entities” value under setting [1] was “NSCLC, RCC, BRCA, UBC, OC, NHL” and the “Peptide Presentation on cancer entities” value under setting [2] is recorded as “AML, CLL, UTC”.

Values taken from patent US10159726B2, “Peptides, combination of peptides and scaffolds for use in immunotherapeutic treatment of various cancers” (Immatics Biotechnologies GmbH, priority 2015, dated 2018).
